The target in data set [1] is T1, WDR76 (FLAG-HA, HEK293 purified) (Homo sapiens) (UniProt Q9H967).
T1 sequence (looked up, limits assumed): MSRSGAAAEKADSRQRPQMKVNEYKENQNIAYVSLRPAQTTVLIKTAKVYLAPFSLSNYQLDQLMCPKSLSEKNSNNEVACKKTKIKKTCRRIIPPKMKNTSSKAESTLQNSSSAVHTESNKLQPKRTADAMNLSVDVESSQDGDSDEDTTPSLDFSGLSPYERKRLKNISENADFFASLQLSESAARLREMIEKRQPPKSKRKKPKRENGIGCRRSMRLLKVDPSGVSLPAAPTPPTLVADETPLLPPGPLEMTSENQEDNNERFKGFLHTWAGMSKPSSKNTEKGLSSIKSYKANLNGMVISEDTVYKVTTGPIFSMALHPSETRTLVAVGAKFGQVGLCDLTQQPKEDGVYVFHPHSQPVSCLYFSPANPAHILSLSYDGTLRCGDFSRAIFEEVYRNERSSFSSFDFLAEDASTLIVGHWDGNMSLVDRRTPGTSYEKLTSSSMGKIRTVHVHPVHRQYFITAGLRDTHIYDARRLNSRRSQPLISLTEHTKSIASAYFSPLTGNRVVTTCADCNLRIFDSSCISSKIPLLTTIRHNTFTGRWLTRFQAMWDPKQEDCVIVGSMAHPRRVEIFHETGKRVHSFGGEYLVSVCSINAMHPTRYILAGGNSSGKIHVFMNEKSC
The data set can be described thus: EMSA. The conditions noted are these: 50 nM DNA; 5-methylcytosine at central CpG C8 of both strands.

Data set [2] deals with T2, C3ORF37/HMCES full-length (UniProt Q96FZ2).
T2 sequence (looked up, limits assumed): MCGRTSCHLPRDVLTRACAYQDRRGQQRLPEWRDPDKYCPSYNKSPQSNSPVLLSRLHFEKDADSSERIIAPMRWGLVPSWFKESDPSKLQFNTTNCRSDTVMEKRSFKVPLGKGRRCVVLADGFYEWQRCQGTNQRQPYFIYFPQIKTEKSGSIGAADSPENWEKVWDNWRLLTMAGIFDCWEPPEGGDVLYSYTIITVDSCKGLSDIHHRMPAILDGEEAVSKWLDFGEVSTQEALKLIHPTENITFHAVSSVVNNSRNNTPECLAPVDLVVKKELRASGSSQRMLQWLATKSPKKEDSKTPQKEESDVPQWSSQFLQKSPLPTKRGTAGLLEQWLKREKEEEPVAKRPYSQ
The data set can be described thus: filter binding. The conditions noted are these: weak binding.

The exact form of at least one protein or probe is not confirmed. A weaker result is weaker than the reference pair of the same experiment. Where a protein sequence is shown, tags need not be part of it.

As to “GCGGCTGCGTGGGTCC (double strand) [mC/mC duplex]”, the binding result in data set [1] and in data set [2] (5-methylcytosine at central CpG C8 of both strands) was “binds more weakly” throughout.

Turning to “GCGGCTGCGTGGGTCC (double strand) [hmC/hmC duplex]”, the binding result in data set [2] (5-hydroxymethylcytosine at central CpG C8 of both strands) is listed as “binds more weakly”.

Source of the values: article doi:10.1101/511394.
